Test systems include MZ2-MEL; MeWo; RPMI7951; RVH-421; SkMel28; SkMel2; SkMel30; SkMel5; UACC257; UACC62; WM115; WM1716; WM1745; WM3526; WM3619; WM451Lu.
Common to all, as to assay: cleaved PARP positive nuclei fraction relative to DMSO control; melanoma cells; higher = more apoptosis
Common to all, as to details: library dose: low library concentration; 72 h

The other results are listed elsewhere or left out. Many values rest on one well or one pass, so single values are uncertain.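 Cells were imaged in 1,536-well plates, and nuclei stained with an antibody against cleaved PARP were counted against all DNA-stained nuclei to give the apoptosis fraction. Screening doses were chosen to leave most cells alive, and resting and induced cleaved-PARP levels differ strongly between cell lines.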

Turning to `CC(C)C[C@H](NC(=O)[C@H](Cc1ccccc1)NC(=O)c1cnccn1)B(O)O` [Bortezomib] + O=C(Oc1ccc([N+](=O)[O-])cc1)N1CCC(C(O)(c2ccc3c(c2)OCO3)c2ccc3c(c2)OCO3)CC1 [JZL184] (first compound 0.001 µM, partner dose 1 µM), the “cleaved PARP positive nuclei fraction” value in the assay on MZ2-MEL was 118%; in the assay on MeWo it was 180%; with RPMI7951, 137%; in the assay with RVH-421 it was 157%; with SkMel28, 20.5%; in the assay on SkMel2 it was 40.7%. The “cleaved PARP positive nuclei fraction” value with SkMel30 stood at 153%; in the assay with SkMel5, 92.3%; in the assay on UACC257 it was 973%; in the assay on UACC62, 144%; in the assay on WM115 it was 138%; in the assay with WM1716, 524%. Further, the “cleaved PARP positive nuclei fraction” value in the assay with WM1745 came out at 437%; with WM3526 it was 114%; in the assay on WM3619, 3360%; in the assay on WM451Lu it was 89.2%.

Turning to `N.N.[Cl][Pt][Cl]` [cisplatin] + CC(C)CCN1c2nc(Nc3cc(F)c(O)c(F)c3)ncc2N(C)C(=O)C1C [BID1870] (first compound 1.6 µM, partner dose 0.2 µM), the “cleaved PARP positive nuclei fraction” value with MZ2-MEL is 64%; in the assay on MeWo, 118%; in the assay on RPMI7951, 67.6%; in the assay with RVH-421 it was 204%; in the assay with SkMel28, 238%; with SkMel2 it was 43.7%. Further, the “cleaved PARP positive nuclei fraction” value in the assay with SkMel30 worked out at 73.6%; in the assay with SkMel5 it was 73.4%; in the assay with UACC257, 68.5%; in the assay on UACC62, 74.7%; with WM115 it was 126%; with WM1716, 101%. The “cleaved PARP positive nuclei fraction” value turned out to be 86% with WM1745, 76.7% in the assay on WM3526, 124% in the assay with WM3619 and 89% with WM451Lu.

Regarding `Cn1cc(C2=C(c3cn(C4CCN(Cc5ccccn5)CC4)c4ccccc34)C(=O)NC2=O)c2ccccc21` [Enzastaurin] + CCc1ccc(CCOc2ccc(CC3SC(=O)NC3=O)cc2)nc1 [pioglitazone] (first compound 0.8 µM, partner dose 2 µM), the “cleaved PARP positive nuclei fraction” value in the assay with MZ2-MEL is 141%; in the assay with MeWo, 38.7%; in the assay on RPMI7951 it was 68.9%; with RVH-421 it was 88.6%; with SkMel28 it was 87.8%; in the assay with SkMel2, 135%. Further, the “cleaved PARP positive nuclei fraction” value with SkMel30 is 63.6%; with SkMel5, 70.5%; in the assay on UACC257, 46.1%; with UACC62, 50.6%; with WM115, 57.5%; with WM1716 it was 22.7%. The “cleaved PARP positive nuclei fraction” value was found to be 101% in the assay on WM1745, 66% with WM3526, 107% in the assay on WM3619 and 62.6% in the assay with WM451Lu.

For `C[As](C)SC[C@H](NC(=O)CC[C@H](N)C(=O)O)C(=O)NCC(=O)O` [Darinaparsin] + CO[C@@H]1[C@H](N(C)C(=O)c2ccccc2)C[C@H]2O[C@]1(C)n1c3ccccc3c3c4c(c5c6ccccc6n2c5c31)C(=O)NC4 [Midostaurin] (first compound 0.4 µM, partner dose 0.08 µM), the “cleaved PARP positive nuclei fraction” value stood at 99.9% in the assay on MZ2-MEL; 79.7% in the assay with MeWo; 108% in the assay on RPMI7951; 74.1% with RVH-421; 76.6% with SkMel28; 210% in the assay on SkMel2. Also, the “cleaved PARP positive nuclei fraction” value in the assay on SkMel30 turned out to be 160%; with SkMel5, 70.3%; in the assay on UACC257 it was 97.9%; with UACC62, 31.2%; with WM115, 70%; in the assay with WM1716, 109%. The “cleaved PARP positive nuclei fraction” value in the assay on WM1745 stood at 93.4%; in the assay with WM3526, 39.7%; with WM3619, 95.8%; in the assay with WM451Lu, 84.6%.

For the molecule `CS(=O)(=O)CCNCc1ccc(-c2ccc3ncnc(Nc4ccc(OCc5cccc(F)c5)c(Cl)c4)c3c2)o1` [lapatinib] + C/C(O)=C(\C#N)C(=O)Nc1cc(Br)ccc1Br [LFM-A13] (first compound 0.8 µM, partner dose 2 µM), the “cleaved PARP positive nuclei fraction” value with MZ2-MEL turned out to be 127%; in the assay on MeWo, 171%; with RPMI7951, 238%; with RVH-421 it was 147%; with SkMel28 it was 134%; in the assay with SkMel2 it was 152%. For the same molecule, the “cleaved PARP positive nuclei fraction” value is 12.9% with SkMel30; 89.4% in the assay on SkMel5; 126% in the assay on UACC257; 115% in the assay on UACC62; 124% with WM115; 79% with WM1716. In addition, the “cleaved PARP positive nuclei fraction” value in the assay with WM1745 worked out at 171%; in the assay on WM3526 it was 45.2%; in the assay on WM3619 it was 82.5%; with WM451Lu, 17%.

(Values after the supplement of paper PMC4604168 (melanoma cell lines).)
